Results from US5344933A, “Pyrrole ring-or condensed pyrrole ring-containing azomethine dye” (Fuji Photo Film Co., Ltd., priority 1991, dated 1994).

experiment: Thermal head printing on heat transfer image-receiving material (Example 2 and following); conditions: Table 1, polyvinyl butyral resin
Excerpt: Onto a 6-μm thick polyethylene terephthalate film (produced by Teijin Limited) which had been rendered heat resistant and smoothened on its back side as a support was coated a heat transfer dye providing layer coating composition having the following formulations by a wire bar coating process to a dry thickness of 1.5 μm to prepare a heat transfer dye providing material (1-1).
Heat transfer dye providing materials (1-2) to (1-10) of the present invention and a comparative heat transfer dye providing material (1-11) were prepared in the same manner as mentioned above except that Dye 2 was replaced by other dyes as set forth in Table 1, respectively.
Onto a 150-μm thick synthetic paper (YUPO-FPG-150 produced by Oji Yuka Goseishi Co., Ltd.) was coated an image-receiving layer coating composition having the following formulations by a wire bar coating process to a dry thickness of 8 μm to prepare a heat transfer image-receiving material. The material was tentatively dried by a dryer, and then dried in an oven at a temperature of 100° C. for 30 minutes.
The heat transfer dye providing materials (1-1) to (1-11) thus obtained were each laminated with the heat transfer image-receiving material in such an arrangement that the heat transfer dye providing layer was brought into contact with the image-receiving layer. Printing was effected by a thermal head on the heat transfer dye providing material from the support side under the conditions of thermal head output of 0.25 W/dot, pulse width of 0.15 to 15 msec., and dot density of 6 dots/mm to cause the cyan dye to be imagewise transferred to the image-receiving layer in the image-receiving material. As a result, a sharp recording was provided free of uneven transfer.

Which Maximum density does the source give for `CCN(CC)c1ccc(N=C2C(C#N)=C(c3ccccc3)c3nc(=O)ccn32)c(NC(C)=O)c1` [Dye 17] here?
The Maximum density was 1.3.

With `CCOC(=O)c1c(C)n2c(nc1=O)C(C#N)=C(c1ccccc1)C2=Nc1ccc(N(CC)CCOc2ccc(OC)cc2)cc1` [Dye 3] as the molecule, how does the Maximum density read?
The Maximum density was 1.3.

For `CCC1=C(Cl)C(=O)C(NC(=O)c2ccco2)=CC1=Nc1ccc(N(CC)CC)cc1` [Dye a, reference compound], which Maximum density is on record?
Its Maximum density is 2.5.

With `CCOC(=O)C1=C(C#N)C(=Nc2ccc(N(CC)CC)cc2)n2c1nc1ccccc1c2=O` [Dye 29] as the molecule, how does the Maximum density read?
Its Maximum density is 1.7.

With `CCOC(=O)c1cn2c(nc1=O)C(C#N)=C(c1ccccc1)C2=Nc1ccc(N(CC)CC)cc1` [Dye 8] as the molecule, how does the Maximum density read?
The Maximum density was 1.9.

Which Maximum density does the source give for `CCOC(=O)c1c(C)n2c(nc1=O)C(C#N)=C(c1ccccc1)C2=Nc1ccc(N(CC)CC)cc1NC(=O)OC` [Dye 4] here?
Its Maximum density is 1.3.

For `CCOC(=O)c1cn2c(nc1=O)C(C#N)=C(c1ccccc1)C2=Nc1ccc(N(CC)CCOc2ccc(OC)cc2)cc1` [Dye 10], which Maximum density is on record?
Its Maximum density is 2.0.

With `CCOC(=O)c1cn2c(nc1=O)C(C#N)=C(C#N)C2=Nc1ccc(N(CC)CC)cc1NC(=O)N(C)C` [Dye 16] as the molecule, how does the Maximum density read?
The Maximum density was 1.5.

Which Maximum density does the source give for `CCOC(=O)c1cn2c(nc1=O)C(C#N)=C(c1ccccc1)C2=Nc1ccc(N(CC)CC)cc1NC(=O)OC` [Dye 12] here?
The Maximum density was 1.3.

Which Maximum density does the source give for `CCN(CC)c1ccc(N=C2C(c3ccccc3)=C(C#N)c3nc(=O)c4ccccc4n32)c(NC(C)=O)c1` [Dye 22] here?
Its Maximum density is 1.4.

Which Maximum density does the source give for `CCOC(=O)c1c(C)n2c(nc1=O)C(C#N)=C(c1ccccc1)C2=Nc1ccc(N(CC)CC)cc1` [Dye 2] here?
Its Maximum density is 1.8.
